Some of these results come from one statement about several compounds together. For at least one compound, name, drawing or mass did not settle the structure. Some ranges recur; such a range may be that of the whole group of compounds.
What follows are molecules tested on A549 (human lung carcinoma) cell line (assay: In vitro cytotoxic activity (MTT assay) against A549 cells). Conditions: relative to carboplatin.
Type: cell-based
Description: The cis-[Pt(NH3)2(thione)2].2NO3 complexes were evaluated for their in vitro cytotoxic activity against A549 (human lung cancer), MCF-7 (human breast cancer) and HTC15 (human colon cancer) cell lines. The cells were seeded at 4×10^3 cells/well in 100 μL DMEM containing 10% FBS in 96-wells tissue culture plate and incubated for 72 h at 37° C., 5% CO2 in the air and 90% relative humidity in the CO2 incubator. […] The medium of wells was discarded and 100 μL DMEM containing MTT (3-(4,5-Dimethylthiazol-2-yl)-2,5-diphenyltetrazolium Bromide) (5 mg/mL) was added to the wells and incubated in a CO2 incubator at 37° C. in dark for 4 h. After incubation, purple colored formazan (artificial chromogenic dye, a product of the reduction of water insoluble tetrazolium salts e.g., MMT by dehydrogenases and reductases) in the cells is produced and appeared as dark crystals in the bottom of the wells. The resultant crystals were solubilized by adding 100 μL of DMSO in each well. The solution was thoroughly mixed to dissolve the formazan crystals, producing a purple solution. The absorbance of the 96-wells plate was taken at 570 nm with Labsystems Multiskan EX-Enzyme-linked immunosorbent assay (EX-ELISA) reader against a reagent blank. The IC50 values were calculated from three independent experiments by generating an equation of logarithmic trendline of percentage cell viability against concentration compounds in Microsoft excel.
The MTT assay was performed in three independent experiments, each in triplicate. The cancer cell lines used are A549 (human lung cancer), MCF-7 (human breast cancer) and HTC15 (human colon cancer) cell lines.

Row | SMILES | in vitro cytotoxicity against A549, fold better than carboplatin
1 | O=[N+]([O-])[O-].O=[N+]([O-])[O-].[NH3+][Pt-2]([NH3+])([S+]=C1NCCN1)[S+]=C1NCCN1 [Compound 1, cis-[Pt(NH3)2(Imt)2].2NO3] | 1-4 fold
2 | CC(C)N1CCNC1=[S+][Pt-2]([NH3+])([NH3+])[S+]=C1NCCN1C(C)C.O=[N+]([O-])[O-].O=[N+]([O-])[O-] [Compound 6, cis-[Pt(NH3)2(iPrImt)2].2NO3] | 1-4 fold
3 | CC(C)N1CCN(C(C)C)C1=[S+][Pt-2]([NH3+])([NH3+])[S+]=C1N(C(C)C)CCN1C(C)C.O=[N+]([O-])[O-].O=[N+]([O-])[O-] [Compound 7, cis-[Pt(NH3)2(iPr2Imt)2].2NO3] | 1-4 fold
4 | O=[N+]([O-])[O-].O=[N+]([O-])[O-].[NH3+][Pt-2]([NH3+])([S+]=C1NCCCCN1)[S+]=C1NCCCCN1 [Compound 10, cis-[Pt(NH3)2(Diap)2].2NO3] | 1-4 fold

Reference: patent US10357473B2, “Method for treating a prolifitive disorder with a cis-diamine platinum complex” (KING FAHD UNIVERSITY OF PETROLEUM AND MINERALS, priority 2017, dated 2019)
